# Measured values: the supplement of paper PMC7666118
# Protein sequences, listed by entry. Tags and fused reporters are not part of them. Lines headed by an entry give the natural chain unless they say otherwise; changes in a name come on top.
# UniProt Q9NV70: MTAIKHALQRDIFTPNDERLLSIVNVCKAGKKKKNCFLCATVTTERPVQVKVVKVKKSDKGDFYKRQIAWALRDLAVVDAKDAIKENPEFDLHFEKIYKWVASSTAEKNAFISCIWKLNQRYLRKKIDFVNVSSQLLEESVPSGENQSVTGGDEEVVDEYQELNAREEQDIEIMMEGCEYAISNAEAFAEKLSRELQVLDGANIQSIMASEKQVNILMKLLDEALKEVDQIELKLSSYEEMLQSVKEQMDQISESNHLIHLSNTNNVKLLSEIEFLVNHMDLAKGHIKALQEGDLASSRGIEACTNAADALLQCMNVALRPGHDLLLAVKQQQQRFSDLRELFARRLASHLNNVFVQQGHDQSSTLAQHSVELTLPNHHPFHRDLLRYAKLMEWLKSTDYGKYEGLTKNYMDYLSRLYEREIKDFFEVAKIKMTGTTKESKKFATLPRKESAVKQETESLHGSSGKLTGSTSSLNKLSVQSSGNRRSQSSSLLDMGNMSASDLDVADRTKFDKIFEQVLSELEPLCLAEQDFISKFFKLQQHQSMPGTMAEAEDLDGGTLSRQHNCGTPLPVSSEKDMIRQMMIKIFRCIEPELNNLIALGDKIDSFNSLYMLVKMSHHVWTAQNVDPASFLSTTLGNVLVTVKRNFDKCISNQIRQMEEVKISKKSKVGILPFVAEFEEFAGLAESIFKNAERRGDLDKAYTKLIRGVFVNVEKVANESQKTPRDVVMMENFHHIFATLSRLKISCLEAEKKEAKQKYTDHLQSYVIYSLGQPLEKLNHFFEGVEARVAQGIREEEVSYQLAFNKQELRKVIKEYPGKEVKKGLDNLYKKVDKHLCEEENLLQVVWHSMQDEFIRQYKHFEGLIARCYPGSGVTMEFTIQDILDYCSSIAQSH
# UniProt P10768: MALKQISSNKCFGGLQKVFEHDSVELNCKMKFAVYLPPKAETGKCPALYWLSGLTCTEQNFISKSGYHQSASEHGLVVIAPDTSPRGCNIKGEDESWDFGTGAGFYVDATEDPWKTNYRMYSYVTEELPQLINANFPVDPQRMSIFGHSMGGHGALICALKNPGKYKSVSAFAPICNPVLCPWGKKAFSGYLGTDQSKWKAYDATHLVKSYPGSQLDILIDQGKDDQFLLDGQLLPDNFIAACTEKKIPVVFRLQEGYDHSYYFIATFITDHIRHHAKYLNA
# UniProt Q9Y282: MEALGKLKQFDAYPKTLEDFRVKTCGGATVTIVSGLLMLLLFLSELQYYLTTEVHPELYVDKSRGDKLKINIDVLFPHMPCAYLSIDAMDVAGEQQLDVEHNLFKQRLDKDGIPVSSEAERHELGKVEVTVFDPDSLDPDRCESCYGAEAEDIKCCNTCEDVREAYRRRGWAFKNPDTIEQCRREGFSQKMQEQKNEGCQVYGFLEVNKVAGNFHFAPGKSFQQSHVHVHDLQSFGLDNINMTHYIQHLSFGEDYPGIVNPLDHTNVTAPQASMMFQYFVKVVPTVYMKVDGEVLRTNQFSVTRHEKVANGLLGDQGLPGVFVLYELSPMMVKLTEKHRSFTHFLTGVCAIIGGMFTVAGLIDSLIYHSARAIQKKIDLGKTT
# UniProt P09104, whole entry: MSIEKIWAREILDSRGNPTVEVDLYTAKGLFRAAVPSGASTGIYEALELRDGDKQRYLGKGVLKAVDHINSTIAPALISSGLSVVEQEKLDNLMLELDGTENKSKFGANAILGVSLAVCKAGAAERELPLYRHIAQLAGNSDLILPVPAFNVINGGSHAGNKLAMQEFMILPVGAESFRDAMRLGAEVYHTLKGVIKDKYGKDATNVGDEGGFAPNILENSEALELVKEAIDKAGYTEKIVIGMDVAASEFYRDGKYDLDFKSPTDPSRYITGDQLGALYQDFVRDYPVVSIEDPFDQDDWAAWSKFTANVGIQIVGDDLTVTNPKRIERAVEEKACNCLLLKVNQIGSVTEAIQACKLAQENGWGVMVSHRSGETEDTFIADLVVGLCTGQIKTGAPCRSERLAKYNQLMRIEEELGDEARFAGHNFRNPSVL
# UniProt Q9BSW2: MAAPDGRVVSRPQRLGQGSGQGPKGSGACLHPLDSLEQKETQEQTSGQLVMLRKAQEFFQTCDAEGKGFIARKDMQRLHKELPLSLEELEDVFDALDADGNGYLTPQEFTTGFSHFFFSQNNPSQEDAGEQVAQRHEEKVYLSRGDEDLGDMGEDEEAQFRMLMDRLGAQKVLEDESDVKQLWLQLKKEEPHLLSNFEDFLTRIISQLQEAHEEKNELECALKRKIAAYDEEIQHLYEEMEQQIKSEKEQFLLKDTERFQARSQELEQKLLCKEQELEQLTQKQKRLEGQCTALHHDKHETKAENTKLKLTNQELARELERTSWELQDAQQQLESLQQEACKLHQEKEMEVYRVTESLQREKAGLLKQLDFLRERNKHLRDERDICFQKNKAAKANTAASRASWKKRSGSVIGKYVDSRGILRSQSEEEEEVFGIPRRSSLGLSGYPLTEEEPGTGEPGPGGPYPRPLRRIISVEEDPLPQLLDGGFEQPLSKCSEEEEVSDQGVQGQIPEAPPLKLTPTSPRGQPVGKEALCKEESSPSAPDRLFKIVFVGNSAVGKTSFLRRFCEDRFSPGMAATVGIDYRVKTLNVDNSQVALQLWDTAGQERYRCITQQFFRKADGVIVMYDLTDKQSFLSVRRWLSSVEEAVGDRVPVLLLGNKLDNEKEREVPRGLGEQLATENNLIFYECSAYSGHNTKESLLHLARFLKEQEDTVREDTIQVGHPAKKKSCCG
# UniProt Q9UBQ5, whole entry: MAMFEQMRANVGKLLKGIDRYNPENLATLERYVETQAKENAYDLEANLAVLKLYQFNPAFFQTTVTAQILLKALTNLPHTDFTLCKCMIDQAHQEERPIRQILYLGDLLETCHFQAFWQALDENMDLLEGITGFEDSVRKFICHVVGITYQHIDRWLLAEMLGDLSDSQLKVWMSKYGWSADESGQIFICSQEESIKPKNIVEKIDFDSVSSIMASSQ
# UniProt P63167, whole entry: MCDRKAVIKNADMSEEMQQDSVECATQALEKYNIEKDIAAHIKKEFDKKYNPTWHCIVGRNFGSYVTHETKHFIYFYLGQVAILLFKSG
# UniProt O75822, whole entry: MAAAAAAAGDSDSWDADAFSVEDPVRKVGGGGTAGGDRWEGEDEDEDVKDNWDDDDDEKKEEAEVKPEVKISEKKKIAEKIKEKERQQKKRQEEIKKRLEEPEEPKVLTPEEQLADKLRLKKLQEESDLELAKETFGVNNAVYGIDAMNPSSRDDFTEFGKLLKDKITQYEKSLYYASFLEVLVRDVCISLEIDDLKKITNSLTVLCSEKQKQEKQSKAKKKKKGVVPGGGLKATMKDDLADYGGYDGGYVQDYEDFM
# UniProt Q9UM22: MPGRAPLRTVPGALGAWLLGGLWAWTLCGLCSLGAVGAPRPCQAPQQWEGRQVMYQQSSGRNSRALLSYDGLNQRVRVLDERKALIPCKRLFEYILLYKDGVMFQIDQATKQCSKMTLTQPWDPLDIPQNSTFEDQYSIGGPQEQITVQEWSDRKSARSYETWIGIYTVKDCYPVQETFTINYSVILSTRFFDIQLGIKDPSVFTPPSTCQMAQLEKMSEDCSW
# UniProt P19525: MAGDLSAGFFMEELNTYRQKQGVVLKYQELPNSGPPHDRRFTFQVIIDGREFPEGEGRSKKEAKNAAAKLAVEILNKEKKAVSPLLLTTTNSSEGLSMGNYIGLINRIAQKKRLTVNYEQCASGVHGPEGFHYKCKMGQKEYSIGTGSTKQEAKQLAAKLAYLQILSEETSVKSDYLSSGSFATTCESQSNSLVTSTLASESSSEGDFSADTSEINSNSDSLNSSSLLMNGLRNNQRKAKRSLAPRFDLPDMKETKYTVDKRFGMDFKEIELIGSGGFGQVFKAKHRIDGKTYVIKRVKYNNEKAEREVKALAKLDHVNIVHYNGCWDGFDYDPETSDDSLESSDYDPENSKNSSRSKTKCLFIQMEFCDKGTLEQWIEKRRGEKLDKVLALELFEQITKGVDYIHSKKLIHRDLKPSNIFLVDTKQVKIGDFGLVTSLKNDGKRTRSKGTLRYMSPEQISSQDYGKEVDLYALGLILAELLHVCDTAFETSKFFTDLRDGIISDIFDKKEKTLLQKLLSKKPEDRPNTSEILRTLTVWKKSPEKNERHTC
# UniProt O75477: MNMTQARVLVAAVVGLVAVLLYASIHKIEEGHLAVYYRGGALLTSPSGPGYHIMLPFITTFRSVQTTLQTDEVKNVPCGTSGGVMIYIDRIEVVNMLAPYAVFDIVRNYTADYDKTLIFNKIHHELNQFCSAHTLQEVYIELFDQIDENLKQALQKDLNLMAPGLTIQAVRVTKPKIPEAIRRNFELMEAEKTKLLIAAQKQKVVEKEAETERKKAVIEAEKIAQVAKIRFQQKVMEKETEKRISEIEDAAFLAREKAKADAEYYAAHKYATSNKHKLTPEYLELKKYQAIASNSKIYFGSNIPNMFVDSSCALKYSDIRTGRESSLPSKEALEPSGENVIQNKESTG
# UniProt Q9Y3B2, whole entry: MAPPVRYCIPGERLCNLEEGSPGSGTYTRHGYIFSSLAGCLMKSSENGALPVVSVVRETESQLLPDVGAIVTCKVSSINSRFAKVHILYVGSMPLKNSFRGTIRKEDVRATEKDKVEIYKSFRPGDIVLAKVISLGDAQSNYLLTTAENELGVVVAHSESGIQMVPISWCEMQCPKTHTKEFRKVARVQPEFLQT
# UniProt Q96RT1: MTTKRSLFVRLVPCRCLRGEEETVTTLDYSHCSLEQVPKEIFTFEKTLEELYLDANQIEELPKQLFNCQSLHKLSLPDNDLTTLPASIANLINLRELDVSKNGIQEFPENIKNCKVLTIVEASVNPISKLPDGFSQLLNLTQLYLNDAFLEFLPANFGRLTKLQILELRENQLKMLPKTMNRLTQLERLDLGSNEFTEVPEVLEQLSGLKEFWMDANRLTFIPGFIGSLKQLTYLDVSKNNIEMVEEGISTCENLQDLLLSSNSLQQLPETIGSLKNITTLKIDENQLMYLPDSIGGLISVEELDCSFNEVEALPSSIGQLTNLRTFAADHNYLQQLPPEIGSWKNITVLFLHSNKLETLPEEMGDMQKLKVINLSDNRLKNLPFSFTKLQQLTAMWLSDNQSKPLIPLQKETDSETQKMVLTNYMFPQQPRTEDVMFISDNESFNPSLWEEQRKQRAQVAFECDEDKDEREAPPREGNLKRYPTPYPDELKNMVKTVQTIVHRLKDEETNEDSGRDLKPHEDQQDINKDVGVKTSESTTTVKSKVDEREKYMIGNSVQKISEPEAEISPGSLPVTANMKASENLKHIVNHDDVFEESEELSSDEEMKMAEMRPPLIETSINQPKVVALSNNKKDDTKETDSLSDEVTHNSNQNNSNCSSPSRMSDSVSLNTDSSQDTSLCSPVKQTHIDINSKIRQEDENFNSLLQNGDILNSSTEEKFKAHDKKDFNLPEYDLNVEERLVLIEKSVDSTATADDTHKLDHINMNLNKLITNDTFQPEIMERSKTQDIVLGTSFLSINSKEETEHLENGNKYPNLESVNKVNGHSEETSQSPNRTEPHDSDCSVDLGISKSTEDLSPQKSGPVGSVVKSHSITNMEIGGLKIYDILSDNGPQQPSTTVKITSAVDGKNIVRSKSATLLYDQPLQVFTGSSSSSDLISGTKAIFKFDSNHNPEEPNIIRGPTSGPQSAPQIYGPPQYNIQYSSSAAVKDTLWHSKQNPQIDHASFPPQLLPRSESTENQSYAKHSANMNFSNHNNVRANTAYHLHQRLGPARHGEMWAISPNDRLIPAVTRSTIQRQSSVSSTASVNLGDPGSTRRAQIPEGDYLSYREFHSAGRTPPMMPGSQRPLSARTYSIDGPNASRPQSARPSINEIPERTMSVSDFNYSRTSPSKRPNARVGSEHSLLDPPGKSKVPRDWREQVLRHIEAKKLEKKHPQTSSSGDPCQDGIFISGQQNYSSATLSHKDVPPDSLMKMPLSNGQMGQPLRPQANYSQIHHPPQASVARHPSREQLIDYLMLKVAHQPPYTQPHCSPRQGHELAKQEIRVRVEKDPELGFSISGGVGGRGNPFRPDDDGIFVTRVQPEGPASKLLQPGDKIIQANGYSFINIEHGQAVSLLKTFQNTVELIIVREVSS
# UniProt Q96E09: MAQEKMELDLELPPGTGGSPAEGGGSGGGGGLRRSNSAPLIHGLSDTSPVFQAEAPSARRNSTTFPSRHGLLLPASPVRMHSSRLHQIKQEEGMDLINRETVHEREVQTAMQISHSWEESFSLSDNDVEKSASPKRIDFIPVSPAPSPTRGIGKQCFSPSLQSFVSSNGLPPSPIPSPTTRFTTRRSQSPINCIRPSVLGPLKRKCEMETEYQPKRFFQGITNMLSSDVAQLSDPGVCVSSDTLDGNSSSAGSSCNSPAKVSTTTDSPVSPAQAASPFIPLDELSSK
# UniProt Q96C19: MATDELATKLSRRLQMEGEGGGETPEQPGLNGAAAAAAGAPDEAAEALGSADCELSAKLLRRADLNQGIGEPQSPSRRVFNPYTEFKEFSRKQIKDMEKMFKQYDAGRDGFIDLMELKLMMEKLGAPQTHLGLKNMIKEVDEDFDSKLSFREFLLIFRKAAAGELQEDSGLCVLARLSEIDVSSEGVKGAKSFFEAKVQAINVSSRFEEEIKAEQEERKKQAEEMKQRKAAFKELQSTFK
# The list shows a part of the results.
# Compound: COc1ccc(Cn2ccc3cc(C)c(C(=O)NO)cc32)cc1
# Assay: dose-dependent thermal stabilisation call (2D-TPP, DLPTP, 10% FDR) (binary (1 = stabilised)); higher = stabilised by the compound
# Conditions: system: HL-60 intact cells; concentration range 0.04-10 µM
# Experimental: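 2D thermal proteome profiling in intact HL-60 cells treated with BRD-3811 (0, 0.04, 0.29, 2, 10 uM) for 90 min at 37 C, then heated 3 min at one of 12 temperatures (42-63.9 C). Soluble protein was quantified by TMT10 MS. The value is the DLPTP call of the paper: dose-dependent thermal stabilisation over all temperatures at 10% FDR (F-test of a dose-response against a flat model); one experiment, one call per tested protein.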
row,Target,dose-dependent thermal stabilisation call
1,EXOC1 (UniProt Q9NV70),inactive: 0
2,EXTL3 (UniProt O43909),inactive: 0
3,EIF5A (UniProt P63241),inactive: 0
4,EYA3 (UniProt Q99504),inactive: 0
5,EIF4A2 (UniProt Q14240),inactive: 0
6,ESD (UniProt P10768),inactive: 0
7,ERGIC3 (UniProt Q9Y282),inactive: 0
8,ENO2 (UniProt P09104),inactive: 0
9,EFCAB4B (UniProt Q9BSW2),inactive: 0
10,EFHA1 (UniProt Q8IYU8),inactive: 0
11,DRAP1 (UniProt Q14919),inactive: 0
12,EI24 (UniProt O14681),inactive: 0
13,EIF3K (UniProt Q9UBQ5),inactive: 0
14,EDEM3 (UniProt Q9BZQ6),inactive: 0
15,EPX (UniProt P11678),inactive: 0
16,FAM172A (UniProt Q8WUF8),inactive: 0
17,EIF3A (UniProt Q14152),inactive: 0
18,DYNC1LI1 (UniProt Q9Y6G9),inactive: 0

row,Target,dose-dependent thermal stabilisation call
1,ERI3 (UniProt O43414),inactive: 0
2,DYNLL1 (UniProt P63167),inactive: 0
3,EMILIN2 (UniProt Q9BXX0),inactive: 0
4,EEF1G (UniProt P26641),inactive: 0
5,EIF3J (UniProt O75822),inactive: 0
6,FAM164A (UniProt Q96GY0),inactive: 0
7,EPDR1 (UniProt Q9UM22),inactive: 0
8,EIF2AK2 (UniProt P19525),inactive: 0
9,ERLIN1 (UniProt O75477),inactive: 0
10,FAM177A1 (UniProt Q8N128),inactive: 0
11,EXOSC1 (UniProt Q9Y3B2),inactive: 0
12,ERBB2IP (UniProt Q96RT1),inactive: 0
13,ERGIC2 (UniProt Q96RQ1),inactive: 0
14,FAM122A (UniProt Q96E09),inactive: 0
15,ELAVL1 (UniProt Q15717),inactive: 0
16,EXOC7 (UniProt Q9UPT5),inactive: 0
17,EFHD2 (UniProt Q96C19),inactive: 0
18,ERO1L (UniProt Q96HE7),inactive: 0

# As a working copy, part of the list above:
row,Target,dose-dependent thermal stabilisation call
16,EXOC7 (UniProt Q9UPT5),inactive: 0
17,EFHD2 (UniProt Q96C19),inactive: 0
